Results taken from patent US5739284A, “Compositions corresponding to a high-affinity glutamate transporter molecule and methods for making and using same” (Brigham and Women's Hospital, Inc., priority 1995, dated 1998).
For at least one compound, name, drawing or mass did not settle the structure.

What was measured:
[1] = target: T1, excitatory amino acid carrier protein (EAAC1) derived from rabbit (Oryctolagus cuniculus, UniProt P31597); assay: uptake of 14C-L-glutamate or 14C-L-aspartate by Xenopus oocytes injected with rabbit EAAC1 cRNA; format: cell-based; details: 1 mM inhibitor, FIG. 8; for inhibition of L-glutamate uptake: 50 μM 14C-L-glutamate
T1 sequence (P31597 1-524): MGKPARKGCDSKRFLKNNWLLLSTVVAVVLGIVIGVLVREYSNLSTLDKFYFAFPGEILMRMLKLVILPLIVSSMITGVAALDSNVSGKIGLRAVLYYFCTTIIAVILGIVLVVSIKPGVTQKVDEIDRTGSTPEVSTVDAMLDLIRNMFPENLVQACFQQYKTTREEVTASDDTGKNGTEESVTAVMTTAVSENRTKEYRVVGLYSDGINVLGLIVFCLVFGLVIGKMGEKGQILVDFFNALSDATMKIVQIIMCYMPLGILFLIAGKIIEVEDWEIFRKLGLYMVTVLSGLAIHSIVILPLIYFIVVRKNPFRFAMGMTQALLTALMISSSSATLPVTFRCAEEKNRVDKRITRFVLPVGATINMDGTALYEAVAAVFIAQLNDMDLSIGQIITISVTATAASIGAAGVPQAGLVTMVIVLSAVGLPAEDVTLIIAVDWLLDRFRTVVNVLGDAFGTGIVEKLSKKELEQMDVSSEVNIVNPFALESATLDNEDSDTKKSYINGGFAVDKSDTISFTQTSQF

[2] = target: T1, excitatory amino acid carrier protein (EAAC1) derived from rabbit; assay: substrate-evoked currents (two-microelectrode voltage clamp) in oocytes expressing rabbit EAAC1; details: 100 μM substrate, -60 mV holding potential, FIG. 7
[3] = tested on: excitatory amino acid carrier derived from rabbit; assay: reversed glutamate transport in oocytes expressing rabbit carrier; format: cell-based; details: Solution B (98 mM KCl, no Na+, no glutamate), FIG. 12
[4] = tested on: glial glutamate transport; details: rat brain; cited from earlier work

## N[C@H](CC(=O)O)C(=O)O [D-aspartate]
[1]; 50 μM 14C-L-aspartate
  inhibition of L-aspartate uptake: effectively inhibited
[1]
  inhibition of L-glutamate uptake: inhibited
[2]
  amplitude of inward current evoked by substrate: almost the same amplitude of inward currents

## N[C@@H](CC(=O)O)C(=O)O [L-aspartate]
[1]
  inhibition of L-glutamate uptake: inhibited
[2]
  amplitude of inward current evoked by substrate: almost the same amplitude of inward currents

## N[C@@H](CCC(=O)O)C(=O)O [L-glutamate]
[3]
  reversed transport of glutamate: suggests a reversed transport of glutamate
[4]
  Km: 1 µM

## CN[C@H](CC(=O)O)C(=O)O [NMDA, N-methyl-D-aspartate]
[2]
  amplitude of inward current evoked by substrate: did not induce current
